Results are given in words; binding and its absence hold for the method and conditions named.

By UniProt entry, the sequences of proteins in these tests, tags left out. Residues count along the entry.
UniProt P46531, residues 19-1735: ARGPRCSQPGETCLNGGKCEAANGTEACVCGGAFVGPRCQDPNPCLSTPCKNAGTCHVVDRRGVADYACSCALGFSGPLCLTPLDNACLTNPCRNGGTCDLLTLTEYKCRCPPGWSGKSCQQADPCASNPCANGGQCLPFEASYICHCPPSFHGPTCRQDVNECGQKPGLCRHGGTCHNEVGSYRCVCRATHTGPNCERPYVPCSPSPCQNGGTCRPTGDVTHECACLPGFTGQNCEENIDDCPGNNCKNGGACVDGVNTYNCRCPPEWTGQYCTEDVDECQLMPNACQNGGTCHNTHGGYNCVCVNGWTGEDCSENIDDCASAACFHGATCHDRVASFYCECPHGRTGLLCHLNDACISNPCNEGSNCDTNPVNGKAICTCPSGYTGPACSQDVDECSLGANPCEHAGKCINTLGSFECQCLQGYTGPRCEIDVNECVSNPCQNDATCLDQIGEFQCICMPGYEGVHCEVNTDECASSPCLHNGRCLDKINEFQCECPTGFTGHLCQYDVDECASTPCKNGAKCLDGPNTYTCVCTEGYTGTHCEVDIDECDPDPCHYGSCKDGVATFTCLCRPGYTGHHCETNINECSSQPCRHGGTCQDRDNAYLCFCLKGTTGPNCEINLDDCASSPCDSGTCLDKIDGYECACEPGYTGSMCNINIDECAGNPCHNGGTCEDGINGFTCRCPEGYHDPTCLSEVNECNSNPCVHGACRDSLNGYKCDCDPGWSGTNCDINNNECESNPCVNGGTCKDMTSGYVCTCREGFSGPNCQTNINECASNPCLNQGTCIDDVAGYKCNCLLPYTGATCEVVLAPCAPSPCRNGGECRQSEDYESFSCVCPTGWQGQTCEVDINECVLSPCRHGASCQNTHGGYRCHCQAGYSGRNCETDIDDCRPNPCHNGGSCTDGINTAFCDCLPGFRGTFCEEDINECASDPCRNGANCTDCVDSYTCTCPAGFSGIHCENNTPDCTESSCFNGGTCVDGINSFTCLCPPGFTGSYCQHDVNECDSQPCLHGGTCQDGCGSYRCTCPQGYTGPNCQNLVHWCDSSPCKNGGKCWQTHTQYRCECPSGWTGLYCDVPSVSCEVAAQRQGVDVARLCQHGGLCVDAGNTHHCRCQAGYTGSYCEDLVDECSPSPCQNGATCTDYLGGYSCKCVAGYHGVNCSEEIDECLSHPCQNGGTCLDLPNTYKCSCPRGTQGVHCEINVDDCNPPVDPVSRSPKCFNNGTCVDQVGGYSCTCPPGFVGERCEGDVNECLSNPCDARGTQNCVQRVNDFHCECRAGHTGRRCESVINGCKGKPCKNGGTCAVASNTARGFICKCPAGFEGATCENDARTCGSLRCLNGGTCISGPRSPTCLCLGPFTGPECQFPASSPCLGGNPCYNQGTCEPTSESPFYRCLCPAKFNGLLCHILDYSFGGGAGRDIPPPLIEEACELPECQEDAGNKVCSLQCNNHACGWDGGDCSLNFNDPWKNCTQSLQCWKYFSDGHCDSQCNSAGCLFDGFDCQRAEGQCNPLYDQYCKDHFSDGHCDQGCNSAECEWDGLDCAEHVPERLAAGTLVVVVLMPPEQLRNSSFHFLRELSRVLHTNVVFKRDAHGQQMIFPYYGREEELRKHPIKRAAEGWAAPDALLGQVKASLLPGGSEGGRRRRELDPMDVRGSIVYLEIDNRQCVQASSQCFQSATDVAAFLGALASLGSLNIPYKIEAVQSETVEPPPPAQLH
UniProt Q04721, residues 26-1677: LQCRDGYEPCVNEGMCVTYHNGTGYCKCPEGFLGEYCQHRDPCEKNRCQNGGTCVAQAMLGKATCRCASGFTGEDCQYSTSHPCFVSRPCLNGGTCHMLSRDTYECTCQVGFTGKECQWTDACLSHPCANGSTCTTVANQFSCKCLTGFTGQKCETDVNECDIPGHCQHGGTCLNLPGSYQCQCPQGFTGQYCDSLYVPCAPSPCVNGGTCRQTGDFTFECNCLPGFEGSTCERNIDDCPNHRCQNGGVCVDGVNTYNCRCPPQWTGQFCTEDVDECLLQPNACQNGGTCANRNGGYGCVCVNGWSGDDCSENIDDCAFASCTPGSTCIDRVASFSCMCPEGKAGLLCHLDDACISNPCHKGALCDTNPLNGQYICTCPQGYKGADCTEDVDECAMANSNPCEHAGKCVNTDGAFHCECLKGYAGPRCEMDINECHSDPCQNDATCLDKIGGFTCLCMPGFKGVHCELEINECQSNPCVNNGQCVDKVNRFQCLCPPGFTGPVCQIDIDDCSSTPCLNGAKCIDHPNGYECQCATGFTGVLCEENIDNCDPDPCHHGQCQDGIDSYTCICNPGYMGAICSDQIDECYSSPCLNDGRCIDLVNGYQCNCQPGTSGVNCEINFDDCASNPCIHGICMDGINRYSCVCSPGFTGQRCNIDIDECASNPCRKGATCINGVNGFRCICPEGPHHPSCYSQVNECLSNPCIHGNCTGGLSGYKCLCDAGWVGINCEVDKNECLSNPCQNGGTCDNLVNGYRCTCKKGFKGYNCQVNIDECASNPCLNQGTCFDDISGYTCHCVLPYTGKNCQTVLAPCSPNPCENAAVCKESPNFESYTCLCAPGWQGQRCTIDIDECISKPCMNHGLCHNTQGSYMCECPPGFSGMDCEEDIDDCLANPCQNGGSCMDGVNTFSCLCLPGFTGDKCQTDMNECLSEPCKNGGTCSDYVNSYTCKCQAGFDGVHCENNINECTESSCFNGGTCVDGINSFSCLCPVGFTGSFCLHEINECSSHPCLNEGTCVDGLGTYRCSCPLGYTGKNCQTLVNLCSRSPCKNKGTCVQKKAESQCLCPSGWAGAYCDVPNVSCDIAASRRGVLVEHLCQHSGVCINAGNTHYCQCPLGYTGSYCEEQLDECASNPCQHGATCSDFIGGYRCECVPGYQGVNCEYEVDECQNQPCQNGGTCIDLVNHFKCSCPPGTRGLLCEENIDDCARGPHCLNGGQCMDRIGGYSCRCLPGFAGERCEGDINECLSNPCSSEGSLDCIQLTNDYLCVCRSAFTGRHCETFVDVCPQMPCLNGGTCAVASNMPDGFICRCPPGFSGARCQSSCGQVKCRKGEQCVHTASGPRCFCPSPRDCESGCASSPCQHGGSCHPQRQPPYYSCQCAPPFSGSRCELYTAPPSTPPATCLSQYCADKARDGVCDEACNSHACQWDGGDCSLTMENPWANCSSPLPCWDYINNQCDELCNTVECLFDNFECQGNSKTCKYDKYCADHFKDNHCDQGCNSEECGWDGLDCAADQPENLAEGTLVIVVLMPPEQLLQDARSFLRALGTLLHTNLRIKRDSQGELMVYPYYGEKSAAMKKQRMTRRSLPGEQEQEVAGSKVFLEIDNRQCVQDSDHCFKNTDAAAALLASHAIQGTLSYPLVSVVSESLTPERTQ

This note sets out measurements from patent publication US20190144537A1.

The target in assay [1] is rhNotch1-Fc (human) (UniProt P46531). Put plainly: SPR (Biacore T100), antibody captured, Notch-Fc injected. Background: Surface plasmon resonance follows binding to a sensor surface in real time, without labels.
Assay [2] has as its target rhNotch2-Fc (human) (UniProt Q04721). The assay is described as above.
Assay [3] addresses rhNotch1-Fc (human) (UniProt P46531). Put plainly: condition: not printed on the sheet (the text gives a tested range of 3.125 to 100 nM); SPR (Biacore), 28042 captured as ligand, rhNotch1-Fc as sample at three dilutions, 25 C.
Assay [4] concerns the target rhNotch2-Fc (human) (UniProt Q04721). Put plainly: condition: not printed on the sheet (the text gives a tested range of 3.125 to 100 nM); SPR (Biacore), 28042 captured as ligand, rhNotch2-Fc as sample at three dilutions, 25 C.

B1: 28042 antibody (antibody, human IgG1, kappa, V domains shown)
VH: EVQLLESGGGLVQPGGSLRLSCAASGFTFSDYMMSWVRQAPGKGLEWVSWIRSSGGTTLYADSVKGRFTISRDNSKNTLYLQMNSLRAEDTATYYCARVGGGTTGYAFDIWGQGTMVTVSS
VL: DIQMTQSPSSLSASVGDRVTITCRASQSISNYLNWYQQKPGKAPKLLIYGASSLQSGVPSRVSGTGSGTDFTLTISSLQPEDFATYYCQQSYSPSFTFGPGTKVDFER
Take B1: the binding entry with rhNotch1-Fc (human) [1] is on record as “no binding (tested: 100 nM to 3.125 nM)”; with rhNotch2-Fc (human) [2] it was “no binding (tested: 100 nM to 3.125 nM)”; in the assay with rhNotch1-Fc (human) [3] it was “no binding”; with rhNotch2-Fc (human) [4] it was “no binding”.
